Experimental data reported in the supplement of paper PMC6411743.
± gives the standard deviation of the averaged measurements. Only a part is listed here, and it is no random draw.

Sequences of proteins named here, by UniProt entry; tags and fusion partners are left off. A change or cut given only in a name is not applied to a line headed by its entry.
UniProt Q13569: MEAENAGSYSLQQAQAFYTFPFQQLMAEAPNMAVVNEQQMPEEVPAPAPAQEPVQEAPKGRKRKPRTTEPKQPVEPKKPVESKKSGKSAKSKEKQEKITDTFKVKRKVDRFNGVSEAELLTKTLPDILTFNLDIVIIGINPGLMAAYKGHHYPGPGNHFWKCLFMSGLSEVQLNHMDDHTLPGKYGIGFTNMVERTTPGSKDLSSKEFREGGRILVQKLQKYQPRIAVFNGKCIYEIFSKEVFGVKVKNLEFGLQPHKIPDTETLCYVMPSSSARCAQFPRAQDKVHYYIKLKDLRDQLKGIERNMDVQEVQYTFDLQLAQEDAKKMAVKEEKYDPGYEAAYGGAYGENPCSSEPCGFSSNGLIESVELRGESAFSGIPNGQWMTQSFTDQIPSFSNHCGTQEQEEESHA
UniProt Q92879: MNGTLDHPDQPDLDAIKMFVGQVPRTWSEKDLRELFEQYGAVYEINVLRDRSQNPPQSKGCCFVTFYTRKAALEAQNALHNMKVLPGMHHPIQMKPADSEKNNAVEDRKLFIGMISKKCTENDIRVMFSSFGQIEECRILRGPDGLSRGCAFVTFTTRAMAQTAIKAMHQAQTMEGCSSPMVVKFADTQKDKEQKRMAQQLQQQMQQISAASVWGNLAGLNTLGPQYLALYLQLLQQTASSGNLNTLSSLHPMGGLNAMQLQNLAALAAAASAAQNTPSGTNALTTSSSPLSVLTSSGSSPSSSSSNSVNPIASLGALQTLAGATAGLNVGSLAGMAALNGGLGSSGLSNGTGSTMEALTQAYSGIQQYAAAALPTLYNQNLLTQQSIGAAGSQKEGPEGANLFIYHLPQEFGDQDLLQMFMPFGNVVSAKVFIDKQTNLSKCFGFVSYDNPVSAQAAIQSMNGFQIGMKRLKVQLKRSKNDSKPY
UniProt Q13449: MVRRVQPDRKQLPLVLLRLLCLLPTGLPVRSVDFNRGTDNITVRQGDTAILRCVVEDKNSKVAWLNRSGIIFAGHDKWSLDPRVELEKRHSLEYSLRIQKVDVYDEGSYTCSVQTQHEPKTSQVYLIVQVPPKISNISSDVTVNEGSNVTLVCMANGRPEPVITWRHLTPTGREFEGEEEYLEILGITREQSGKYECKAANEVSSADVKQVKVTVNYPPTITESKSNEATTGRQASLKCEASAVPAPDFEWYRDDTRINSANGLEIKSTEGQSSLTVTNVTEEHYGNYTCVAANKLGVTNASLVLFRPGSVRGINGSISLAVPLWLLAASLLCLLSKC
UniProt Q96GQ5: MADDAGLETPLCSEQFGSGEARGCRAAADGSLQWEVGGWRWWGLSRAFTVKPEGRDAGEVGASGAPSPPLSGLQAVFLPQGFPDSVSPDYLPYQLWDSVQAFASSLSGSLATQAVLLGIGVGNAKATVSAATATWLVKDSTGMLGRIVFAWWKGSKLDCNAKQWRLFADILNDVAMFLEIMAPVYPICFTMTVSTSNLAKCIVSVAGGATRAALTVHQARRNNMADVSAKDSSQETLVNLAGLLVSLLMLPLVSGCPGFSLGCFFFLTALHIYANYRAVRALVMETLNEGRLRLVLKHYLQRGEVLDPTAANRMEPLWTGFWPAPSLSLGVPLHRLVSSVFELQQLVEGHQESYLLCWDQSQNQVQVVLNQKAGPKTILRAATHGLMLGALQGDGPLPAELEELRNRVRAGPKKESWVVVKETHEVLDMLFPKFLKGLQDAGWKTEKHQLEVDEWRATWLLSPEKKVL
UniProt Q9BUR5: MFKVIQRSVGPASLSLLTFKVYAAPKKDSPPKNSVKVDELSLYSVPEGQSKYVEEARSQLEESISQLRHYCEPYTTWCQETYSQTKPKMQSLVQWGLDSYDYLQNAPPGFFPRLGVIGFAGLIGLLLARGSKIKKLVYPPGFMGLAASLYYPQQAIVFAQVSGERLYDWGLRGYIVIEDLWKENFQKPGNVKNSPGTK
UniProt P61769, whole entry: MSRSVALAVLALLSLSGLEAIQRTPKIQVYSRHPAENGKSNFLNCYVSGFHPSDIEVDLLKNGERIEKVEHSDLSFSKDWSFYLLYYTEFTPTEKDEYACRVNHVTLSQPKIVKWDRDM
UniProt O43598: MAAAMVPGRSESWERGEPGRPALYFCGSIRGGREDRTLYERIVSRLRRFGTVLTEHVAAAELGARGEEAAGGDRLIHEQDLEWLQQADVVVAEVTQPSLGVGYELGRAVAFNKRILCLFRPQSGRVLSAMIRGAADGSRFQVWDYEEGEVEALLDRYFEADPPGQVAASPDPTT
UniProt Q13227: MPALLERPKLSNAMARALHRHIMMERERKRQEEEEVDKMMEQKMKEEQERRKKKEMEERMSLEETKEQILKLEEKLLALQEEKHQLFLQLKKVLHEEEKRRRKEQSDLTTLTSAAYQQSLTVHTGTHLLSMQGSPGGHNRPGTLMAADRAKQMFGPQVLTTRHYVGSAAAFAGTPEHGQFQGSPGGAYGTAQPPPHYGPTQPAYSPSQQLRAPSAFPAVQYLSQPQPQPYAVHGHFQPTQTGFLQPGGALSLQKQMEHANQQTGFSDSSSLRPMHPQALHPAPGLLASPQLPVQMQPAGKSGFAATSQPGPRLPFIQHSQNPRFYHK
UniProt P60842, whole entry: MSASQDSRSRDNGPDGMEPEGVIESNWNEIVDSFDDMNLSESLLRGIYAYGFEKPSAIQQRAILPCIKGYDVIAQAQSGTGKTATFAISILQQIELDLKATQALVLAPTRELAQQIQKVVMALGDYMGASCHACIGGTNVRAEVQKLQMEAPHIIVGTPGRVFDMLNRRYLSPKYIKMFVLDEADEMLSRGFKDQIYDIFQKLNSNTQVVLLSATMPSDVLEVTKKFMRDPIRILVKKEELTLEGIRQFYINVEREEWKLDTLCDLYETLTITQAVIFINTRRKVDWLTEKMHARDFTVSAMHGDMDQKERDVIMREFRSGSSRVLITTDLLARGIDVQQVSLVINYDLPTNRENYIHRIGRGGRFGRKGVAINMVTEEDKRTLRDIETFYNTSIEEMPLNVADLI
UniProt Q6P2D0: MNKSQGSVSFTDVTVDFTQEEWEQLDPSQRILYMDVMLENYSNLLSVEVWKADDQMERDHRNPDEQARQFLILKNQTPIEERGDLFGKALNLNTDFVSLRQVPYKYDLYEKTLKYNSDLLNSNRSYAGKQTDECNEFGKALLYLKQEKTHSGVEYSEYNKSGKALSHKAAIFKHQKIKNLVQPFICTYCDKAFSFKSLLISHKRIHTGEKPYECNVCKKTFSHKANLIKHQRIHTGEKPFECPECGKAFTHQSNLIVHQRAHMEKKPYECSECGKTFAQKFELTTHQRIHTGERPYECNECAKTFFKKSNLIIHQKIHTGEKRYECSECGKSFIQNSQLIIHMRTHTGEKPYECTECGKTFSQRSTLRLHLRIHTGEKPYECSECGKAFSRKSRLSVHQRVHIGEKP
UniProt Q9Y3E5: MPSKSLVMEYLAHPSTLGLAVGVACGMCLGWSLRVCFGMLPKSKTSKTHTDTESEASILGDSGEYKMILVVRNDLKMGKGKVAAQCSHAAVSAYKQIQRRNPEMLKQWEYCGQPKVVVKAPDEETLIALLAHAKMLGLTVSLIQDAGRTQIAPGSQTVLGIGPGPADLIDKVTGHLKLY
UniProt P19338, whole entry: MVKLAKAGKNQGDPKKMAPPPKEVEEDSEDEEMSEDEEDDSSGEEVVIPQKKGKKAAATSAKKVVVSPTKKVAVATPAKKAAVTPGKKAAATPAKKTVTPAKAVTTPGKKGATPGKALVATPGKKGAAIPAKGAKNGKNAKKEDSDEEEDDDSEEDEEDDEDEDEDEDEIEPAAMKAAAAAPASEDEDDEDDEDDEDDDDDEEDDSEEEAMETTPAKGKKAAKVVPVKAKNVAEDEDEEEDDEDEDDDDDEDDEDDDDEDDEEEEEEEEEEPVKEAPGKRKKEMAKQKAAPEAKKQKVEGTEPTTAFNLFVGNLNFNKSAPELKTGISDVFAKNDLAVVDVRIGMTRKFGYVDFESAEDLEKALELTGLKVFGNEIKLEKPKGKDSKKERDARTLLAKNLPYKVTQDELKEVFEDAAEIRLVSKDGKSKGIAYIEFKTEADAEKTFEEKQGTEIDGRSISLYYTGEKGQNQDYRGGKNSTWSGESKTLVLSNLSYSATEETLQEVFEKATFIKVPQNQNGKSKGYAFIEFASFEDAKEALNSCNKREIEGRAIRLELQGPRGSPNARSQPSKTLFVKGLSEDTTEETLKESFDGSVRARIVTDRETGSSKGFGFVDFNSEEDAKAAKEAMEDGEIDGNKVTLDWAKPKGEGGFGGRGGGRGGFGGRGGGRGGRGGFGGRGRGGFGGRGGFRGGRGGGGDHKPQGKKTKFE
UniProt Q9UG56: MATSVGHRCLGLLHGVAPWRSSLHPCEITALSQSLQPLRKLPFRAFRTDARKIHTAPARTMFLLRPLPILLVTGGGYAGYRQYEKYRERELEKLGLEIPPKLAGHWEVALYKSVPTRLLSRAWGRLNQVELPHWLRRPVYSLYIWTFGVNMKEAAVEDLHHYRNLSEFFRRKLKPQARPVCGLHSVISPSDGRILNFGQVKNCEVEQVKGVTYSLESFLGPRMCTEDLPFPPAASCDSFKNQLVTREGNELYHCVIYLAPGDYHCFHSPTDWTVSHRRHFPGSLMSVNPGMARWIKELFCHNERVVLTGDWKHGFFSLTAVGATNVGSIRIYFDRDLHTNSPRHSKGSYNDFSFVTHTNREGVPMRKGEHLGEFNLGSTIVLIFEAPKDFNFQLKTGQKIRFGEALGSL
UniProt Q12968: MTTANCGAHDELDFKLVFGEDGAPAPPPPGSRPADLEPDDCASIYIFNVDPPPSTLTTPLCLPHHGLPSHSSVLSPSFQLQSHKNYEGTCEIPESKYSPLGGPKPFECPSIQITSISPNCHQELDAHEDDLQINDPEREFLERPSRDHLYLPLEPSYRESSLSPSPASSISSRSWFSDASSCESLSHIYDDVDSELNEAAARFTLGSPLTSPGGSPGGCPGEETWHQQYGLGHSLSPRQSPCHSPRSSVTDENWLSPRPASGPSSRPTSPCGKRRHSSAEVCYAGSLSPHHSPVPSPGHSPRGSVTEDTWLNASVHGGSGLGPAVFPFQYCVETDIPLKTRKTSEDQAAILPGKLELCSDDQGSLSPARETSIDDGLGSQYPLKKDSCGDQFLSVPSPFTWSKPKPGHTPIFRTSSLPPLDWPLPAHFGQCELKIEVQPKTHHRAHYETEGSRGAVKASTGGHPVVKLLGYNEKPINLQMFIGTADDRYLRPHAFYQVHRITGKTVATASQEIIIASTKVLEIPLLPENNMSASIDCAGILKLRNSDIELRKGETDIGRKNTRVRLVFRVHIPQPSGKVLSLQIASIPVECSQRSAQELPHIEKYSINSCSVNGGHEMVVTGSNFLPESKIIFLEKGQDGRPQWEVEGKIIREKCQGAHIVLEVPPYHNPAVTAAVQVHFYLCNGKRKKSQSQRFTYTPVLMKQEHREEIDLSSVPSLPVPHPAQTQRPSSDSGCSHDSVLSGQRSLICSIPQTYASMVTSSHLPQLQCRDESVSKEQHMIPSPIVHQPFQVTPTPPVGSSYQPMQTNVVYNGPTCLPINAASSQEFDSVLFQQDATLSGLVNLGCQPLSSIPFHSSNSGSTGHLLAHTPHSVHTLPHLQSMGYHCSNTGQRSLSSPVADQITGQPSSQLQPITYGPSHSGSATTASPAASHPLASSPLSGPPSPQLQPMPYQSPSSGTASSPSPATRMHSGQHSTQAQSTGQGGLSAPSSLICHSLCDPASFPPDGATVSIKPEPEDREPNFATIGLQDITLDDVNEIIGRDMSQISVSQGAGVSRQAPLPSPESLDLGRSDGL
UniProt Q7Z569: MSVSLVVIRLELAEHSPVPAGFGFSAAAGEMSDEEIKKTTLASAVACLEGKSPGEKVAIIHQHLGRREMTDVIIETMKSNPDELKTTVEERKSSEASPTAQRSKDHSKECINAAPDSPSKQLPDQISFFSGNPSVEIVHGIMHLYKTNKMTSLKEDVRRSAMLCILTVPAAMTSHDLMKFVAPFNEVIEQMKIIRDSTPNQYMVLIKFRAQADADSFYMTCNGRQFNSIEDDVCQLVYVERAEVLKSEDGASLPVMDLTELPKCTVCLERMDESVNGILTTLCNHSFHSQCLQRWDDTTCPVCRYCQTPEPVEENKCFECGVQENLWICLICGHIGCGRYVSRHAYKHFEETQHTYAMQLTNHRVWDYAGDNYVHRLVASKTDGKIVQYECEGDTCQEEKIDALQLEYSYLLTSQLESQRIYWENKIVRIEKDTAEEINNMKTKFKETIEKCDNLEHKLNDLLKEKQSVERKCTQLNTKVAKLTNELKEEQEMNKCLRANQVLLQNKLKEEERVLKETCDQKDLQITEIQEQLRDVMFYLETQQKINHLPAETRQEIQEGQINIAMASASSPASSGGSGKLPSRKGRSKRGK
UniProt Q9NVS9: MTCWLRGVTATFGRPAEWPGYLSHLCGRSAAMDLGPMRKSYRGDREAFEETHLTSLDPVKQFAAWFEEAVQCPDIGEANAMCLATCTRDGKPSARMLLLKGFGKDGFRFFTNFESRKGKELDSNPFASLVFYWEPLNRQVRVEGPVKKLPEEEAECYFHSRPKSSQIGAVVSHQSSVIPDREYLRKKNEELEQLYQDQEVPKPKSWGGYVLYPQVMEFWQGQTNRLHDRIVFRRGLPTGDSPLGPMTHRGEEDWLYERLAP

Compound: Nc1ncnc2c1ncn2[C@@H]1O[C@H](COP(=O)(O)OP(=O)(O)NP(=O)(O)O)[C@@H](O)[C@H]1O [adenylyl imidodiphosphate]
Test: NP40-soluble protein abundance relative to vehicle (solubility fold change) (ratio); higher = more soluble protein in presence of AMP-PNP
How it was run: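 Across three independent experiments, values are fold changes against the detergent-processed vehicle for each replicate, based on vsn-normalised intensities. The samples were Jurkat crude lysate treated with eight concentrations (0.1 to 10 mM) for 10 min at room temperature and then 3 min at 37 °C. Lysate was solubilised with 0.8% NP40 and benzonase, ultracentrifuged, and the supernatant analysed by TMT-labelled LC-MS/MS.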

Target	NP40-soluble protein abundance (concentration: 1mM)	NP40-soluble protein abundance (concentration: 2mM)	NP40-soluble protein abundance (concentration: 4mM)	NP40-soluble protein abundance (concentration: 6mM)	NP40-soluble protein abundance (concentration: 8mM)	NP40-soluble protein abundance (concentration: 10mM)
J3QTA2 and related entries (UniProt Q99933)	1.01 ± 0.028	1.029 ± 0.0083	0.992 ± 0.012	0.99 ± 0.03	0.965 ± 0.038	0.993 ± 0.021
H3BUV9 and related entries (UniProt Q96S82)	1.04 ± 0.032	1.04 ± 0.038	1.02 ± 0.024	0.979 ± 0.012	0.983 ± 0.024	0.983 ± 0.013
H3BQW8 and related entries (UniProt Q16775)	1.01 ± 0.047	0.97 ± 0.054	1.02 ± 0.071	1.04 ± 0.069	1.04 ± 0.073	1.08 ± 0.13
J3KPH8 and related entries (UniProt Q8WUI4)	0.979 ± 0.04	1 ± 0.027	1 ± 0.026	0.98 ± 0.024	0.998 ± 0.067	0.9557 ± 0.0038
G8JL98 and related entries (UniProt Q13569)	0.978 ± 0.029	0.9627 ± 0.0029	0.944 ± 0.023	0.957 ± 0.041	0.941 ± 0.0098	0.9457 ± 0.0067
G5EA30 and related entries (UniProt Q92879)	1.06 ± 0.025	1.07 ± 0.066	1.09 ± 0.04	1.11 ± 0.067	1.12 ± 0.057	1.17 ± 0.056
H3BLU2 and related entries (UniProt Q13449)	1 ± 0.025	1.09 ± 0.064	0.9961 ± 0.0087	1.01 ± 0.033	0.95 ± 0.055	0.99 ± 0.029
I3L2M1 and related entries (UniProt Q8WYJ6)	1.04 ± 0.032	1.01 ± 0.022	1.04 ± 0.012	0.9903 ± 0.0048	0.9907 ± 0.001	0.994 ± 0.013
J3KRD0 and related entries (UniProt Q86W34)	1 ± 0.038	0.994 ± 0.03	0.968 ± 0.041	0.977 ± 0.011	0.985 ± 0.032	1.03 ± 0.027
J3QKK3 and related entries (UniProt O43502)	0.9837 ± 0.0043	1.01 ± 0.013	0.976 ± 0.0084	0.937 ± 0.042	0.933 ± 0.019	0.951 ± 0.031
H3BSS6 and related entries (UniProt Q9H2Y7)	1.02 ± 0.014	1.02 ± 0.018	1.004 ± 0.0087	1.01 ± 0.011	1.02 ± 0.017	1.02 ± 0.029
I3L2C7 and related entries (UniProt P57678)	1.01 ± 0.058	0.919 ± 0.046	0.957 ± 0.032	0.951 ± 0.034	0.983 ± 0.08	0.937 ± 0.068
H3BSH7 and related entries (UniProt Q969X6)	1.02 ± 0.015	0.982 ± 0.059	1.048 ± 0.0087	1.03 ± 0.055	1.1 ± 0.035	1.08 ± 0.037
H3BSM7 and related entries (UniProt Q96GQ5)	1 ± 0.032	0.9753 ± 0.0055	1.02 ± 0.054	1.06 ± 0.055	1.07 ± 0.055	1.06 ± 0.019
H0Y860 and related entries (UniProt Q9P246)	0.951 ± 0.013	1.04 ± 0.081	1.01 ± 0.034	0.961 ± 0.018	0.925 ± 0.02	0.931 ± 0.04
H7C1U8 and related entries (UniProt Q9BUR5)	1.05 ± 0.025	1.02 ± 0.016	1.04 ± 0.038	0.99 ± 0.043	1.04 ± 0.041	0.957 ± 0.081
H0YLF3 and related entries (UniProt P61769)	0.99 ± 0.055	0.977 ± 0.084	0.923 ± 0.1	0.879 ± 0.15	0.971 ± 0.035	0.917 ± 0.076
J3KSP6 and related entries (UniProt Q8N0W3)	0.997 ± 0.028	0.966 ± 0.015	0.996 ± 0.026	0.959 ± 0.028	0.986 ± 0.02	0.943 ± 0.021
H0Y8X4 and related entries (UniProt O43598)	0.964 ± 0.042	0.992 ± 0.054	1.04 ± 0.042	1.07 ± 0.085	1.09 ± 0.043	1.11 ± 0.06
I3L4X7 and related entries (UniProt Q13227)	0.982 ± 0.029	1.03 ± 0.059	1.02 ± 0.064	1.08 ± 0.067	1.05 ± 0.019	1.1 ± 0.019
J3KQH6 and related entries (UniProt P78364)	1.01 ± 0.067	1.01 ± 0.02	1.01 ± 0.018	1.04 ± 0.047	1.03 ± 0.025	1.05 ± 0.032
H7BZJ3 and related entries (UniProt P30101)	1.03 ± 0.02	1.04 ± 0.05	1.02 ± 0.025	0.981 ± 0.042	0.961 ± 0.044	0.965 ± 0.1

Pulled one by one from the entries so far:
Target	NP40-soluble protein abundance (concentration: 1mM)	NP40-soluble protein abundance (concentration: 2mM)	NP40-soluble protein abundance (concentration: 4mM)	NP40-soluble protein abundance (concentration: 6mM)	NP40-soluble protein abundance (concentration: 8mM)	NP40-soluble protein abundance (concentration: 10mM)
J3QKK3 and related entries (UniProt O43502)	0.9837 ± 0.0043	1.01 ± 0.013	0.976 ± 0.0084	0.937 ± 0.042	0.933 ± 0.019	0.951 ± 0.031
H3BUV9 and related entries (UniProt Q96S82)	1.04 ± 0.032	1.04 ± 0.038	1.02 ± 0.024	0.979 ± 0.012	0.983 ± 0.024	0.983 ± 0.013

Continued.

Target	NP40-soluble protein abundance (concentration: 1mM)	NP40-soluble protein abundance (concentration: 2mM)	NP40-soluble protein abundance (concentration: 4mM)	NP40-soluble protein abundance (concentration: 6mM)	NP40-soluble protein abundance (concentration: 8mM)	NP40-soluble protein abundance (concentration: 10mM)
G3V529 and related entries (UniProt Q9GZR7)	1.018 ± 0.0045	0.986 ± 0.022	0.9959 ± 0.0084	0.986 ± 0.015	0.9765 ± 0.0097	0.99 ± 0.014
J3QS69 and related entries (UniProt P60842)	1.03 ± 0.03	0.915 ± 0.061	1.01 ± 0.019	1.05 ± 0.067	1.12 ± 0.041	1.06 ± 0.016
J3KNQ1 and related entries (UniProt Q6P2D0)	0.99 ± 0.025	0.986 ± 0.053	0.963 ± 0.056	0.992 ± 0.071	0.982 ± 0.068	0.95 ± 0.031
J3KQ48 and related entries (UniProt Q9Y3E5)	1.02 ± 0.053	1.03 ± 0.029	1.03 ± 0.033	1.04 ± 0.015	1.073 ± 0.0098	1.04 ± 0.024
H7BY16 and related entries (UniProt P19338)	1.01 ± 0.022	1.1 ± 0.073	1.04 ± 0.03	1.12 ± 0.052	1.06 ± 0.029	1.14 ± 0.065
UniProt G3V599	1.01 ± 0.031	1.06 ± 0.059	1.03 ± 0.057	0.9787 ± 0.0067	0.984 ± 0.015	0.976 ± 0.034
H3BLZ8 (UniProt Q92841)	1.03 ± 0.061	1.02 ± 0.06	0.983 ± 0.17	1 ± 0.13	1.04 ± 0.097	1.04 ± 0.08
J3KNL6 and related entries (UniProt O15027)	0.962 ± 0.069	0.957 ± 0.063	0.932 ± 0.12	0.862 ± 0.1	0.844 ± 0.13	0.849 ± 0.14
H0YJI2 and related entries (UniProt Q15643)	1.008 ± 0.0049	1.05 ± 0.073	1.02 ± 0.018	0.953 ± 0.015	0.928 ± 0.025	0.949 ± 0.043
H3BNM4 and related entries (UniProt Q8NBZ0)	1.02 ± 0.011	1.12 ± 0.053	0.986 ± 0.011	1.02 ± 0.015	0.9759 ± 0.0048	1.01 ± 0.038
J3QT09 and related entries (UniProt Q9BQF6)	1.01 ± 0.042	0.977 ± 0.011	0.997 ± 0.05	1.02 ± 0.027	1.03 ± 0.026	1.01 ± 0.039
I3L165 and related entries (UniProt O14964)	0.981 ± 0.03	0.987 ± 0.067	0.993 ± 0.049	1.01 ± 0.096	1.02 ± 0.05	1.04 ± 0.069
H0Y7P7 and related entries (UniProt Q9UG56)	0.985 ± 0.023	0.961 ± 0.025	0.985 ± 0.056	0.986 ± 0.011	0.983 ± 0.025	1.01 ± 0.016
H0YEU4 and related entries (UniProt Q03164)	1.05 ± 0.04	1.11 ± 0.037	1.12 ± 0.013	1.12 ± 0.029	1.15 ± 0.045	1.22 ± 0.092
H0YDM4 and related entries (UniProt Q86VS8)	1 ± 0.018	1.04 ± 0.073	0.998 ± 0.042	0.941 ± 0.013	0.958 ± 0.0034	0.887 ± 0.043
H0YIP2 and related entries (UniProt P49642)	0.9809 ± 0.0084	0.979 ± 0.025	0.945 ± 0.015	0.946 ± 0.034	0.929 ± 0.043	0.938 ± 0.038
I3L3K7 and related entries (UniProt Q12968)	1.04 ± 0.021	1.02 ± 0.015	1.03 ± 0.024	0.996 ± 0.037	0.993 ± 0.037	1 ± 0.037
H0YIE9 and related entries (UniProt O94952)	0.991 ± 0.03	0.926 ± 0.052	0.967 ± 0.047	0.987 ± 0.05	1.02 ± 0.029	0.99 ± 0.039
J3KNN7 and related entries (UniProt Q7Z569)	1.014 ± 0.0046	1.03 ± 0.022	1.05 ± 0.023	0.988 ± 0.015	0.998 ± 0.015	1.02 ± 0.022
H0YGR4 and related entries (UniProt Q9Y3B8)	0.94 ± 0.052	1.01 ± 0.016	0.897 ± 0.053	0.951 ± 0.024	0.911 ± 0.041	0.901 ± 0.069
J3QQV6 and related entries (UniProt Q9NVS9)	0.988 ± 0.05	0.999 ± 0.044	0.96 ± 0.03	0.953 ± 0.013	0.948 ± 0.039	0.9568 ± 0.0081
